Measured values from publication PMC7819943, “Rice protein-binding microarrays: a tool to detect cis-acting elements near promoter regions in rice”.
This is one part of the list.

What follows are sequences tested against T1, OsSMF1 (Oryza sativa, UniProt Q6ZLB0 1-436) (assay: protein-binding microarray (RPBM); PBS, 2% BSA, 51.3 ng/ul salmon testes DNA, 50 uM zinc acetate, 200 nM TF, 25 C, 1 h; high values mean tight binding). Conditions: protein: recombinant; tags: N-terminal polyhistidine and DsRed monomer fusion (pET32a); chain copies: 2; label: CyDye5-dUTP incorporated in the synthesized complementary strand; 3' TTTTT single-stranded linker to array surface; dsDNA, one strand shown.
T1 sequence: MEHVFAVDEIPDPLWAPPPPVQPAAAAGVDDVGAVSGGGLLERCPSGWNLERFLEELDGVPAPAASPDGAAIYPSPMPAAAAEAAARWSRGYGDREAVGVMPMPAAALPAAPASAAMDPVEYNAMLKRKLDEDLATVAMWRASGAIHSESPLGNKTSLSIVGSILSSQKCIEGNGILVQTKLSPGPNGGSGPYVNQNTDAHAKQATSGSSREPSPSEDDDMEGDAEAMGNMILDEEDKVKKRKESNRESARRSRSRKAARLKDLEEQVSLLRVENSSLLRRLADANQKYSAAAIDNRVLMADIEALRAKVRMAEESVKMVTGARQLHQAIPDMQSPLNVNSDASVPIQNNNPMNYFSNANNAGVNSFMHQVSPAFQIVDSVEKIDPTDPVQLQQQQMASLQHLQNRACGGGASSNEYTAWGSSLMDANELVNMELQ
Procedure, shortened: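 Polyhistidine-tagged DsRed fusions of transcription factors, joined at the N-terminus, were expressed in E. coli BL21-CodonPlus and isolated on Ni–NTA. They were incubated at 200 nM for 1 h at 25 °C on a custom Agilent array, double-stranded and BSA-blocked, in PBS with 2% BSA, salmon testes DNA and 50 µM zinc acetate. The binding signal is per-feature fluorescence intensity (arbitrary units) read on an Axon 4000B scanner after washing.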

Point of comparison: “AAGCGATCAAGAGGAAATAATTCAAATGGCTGCCCGGTTGCGGAGTCACCTAGTGCAG”, binding signal 3330 fluorescence intensity (a.u.). Against it:
- GAACGGAACAGAGTGTGACACGGCATATATGTACTTTCCCCGGAGTCACCTAGTGCAG — higher, 10500 fluorescence intensity (a.u.)
- GCCGTAGCGAGATCTGTAGCAACCAGTGCGCCTTCGCCGTCGGAGTCACCTAGTGCAG — lower, 3150 fluorescence intensity (a.u.)
- TATGGGAGTTTAGAGACGAATAACTGACGTAATCAAAATCCGGAGTCACCTAGTGCAG — higher, 6090 fluorescence intensity (a.u.)
- TCTCTCAAGATAGCTGCCAGCTCACGCCAGCTTACAAGTTCGGAGTCACCTAGTGCAG — higher, 6540 fluorescence intensity (a.u.)
- GTACGCCATGCTGCACCTCCTGCACCGCCACATGAAGCACCGGAGTCACCTAGTGCAG — lower, 3260 fluorescence intensity (a.u.)
- ATAATATCACACGTACACTCCCACATATACACTCTCTTTCCGGAGTCACCTAGTGCAG — lower, 3140 fluorescence intensity (a.u.)
- GCCGCTCGCCGCCGTGCTCGCCGTGATCCTGCTGCCGTCGCGGAGTCACCTAGTGCAG — higher, 3800 fluorescence intensity (a.u.)
- TTCGATGGCATCGTGGCTTCTCGCATTCCCTCTTGTGGAGCGGAGTCACCTAGTGCAG — higher, 25800 fluorescence intensity (a.u.)
- CCCTTCAATTTTCTAGCTATAGCATCCTTCCGTGACGCAGCGGAGTCACCTAGTGCAG — higher, 5230 fluorescence intensity (a.u.)
- CTTGCCATGTCACAATCCTATCTCTTGCAGTCGCAGGCCGCGGAGTCACCTAGTGCAG — higher, 6940 fluorescence intensity (a.u.)
- AAGAAGAAGACGACGACGTGGCGAGCCAAGTAGCAGCAAACGGAGTCACCTAGTGCAG — higher, 3620 fluorescence intensity (a.u.)
- ATTTCCCTCCTGGTTTGAATCAGCATTGATCTGGTTTTCCCGGAGTCACCTAGTGCAG — higher, 4590 fluorescence intensity (a.u.)
- ATGCTGGATGCATTTGATGACTTGGTAAATGTAGAGAAGACGGAGTCACCTAGTGCAG — higher, 4270 fluorescence intensity (a.u.)
- CAGAAAGTCGTGCGTTGGACTGATCCTTTGCAAATGATCACGGAGTCACCTAGTGCAG — lower, 3200 fluorescence intensity (a.u.)
- TAGTTTTCTCAGGTGTTTGGGAATTGGTTGGTGAAGATGACGGAGTCACCTAGTGCAG — higher, 9530 fluorescence intensity (a.u.)
- CGGTCACGCAGGATGGACGTGCGGCACCGCCTCGCTCTTACGGAGTCACCTAGTGCAG — higher, 22700 fluorescence intensity (a.u.)
- GCGACTTGGCCAGCCCAGGAGCCTCACTTGGCCTTGGGAACGGAGTCACCTAGTGCAG — higher, 36200 fluorescence intensity (a.u.)
- CTCACTTTTCGCGGCAACCTCAGTGAAGTCAGCGAGGTGACGGAGTCACCTAGTGCAG — higher, 31700 fluorescence intensity (a.u.)
- TCGAACCCGACGCCGCCGCCGTGACGCGGCGCTCCCTCCGCGGAGTCACCTAGTGCAG — higher, 11600 fluorescence intensity (a.u.)
- CGCCCCTCTCCTTGCCTGCAACGTCACATTCCCCACACTCCGGAGTCACCTAGTGCAG — higher, 7060 fluorescence intensity (a.u.)
- GAAAGTGGACTCTATTATTATCCTTCCTCTAATCACCCATCGGAGTCACCTAGTGCAG — higher, 19300 fluorescence intensity (a.u.)
- GCCAATACTAGTACAGTGAGTGAGTCATTTGCATCTGCATCGGAGTCACCTAGTGCAG — higher, 8300 fluorescence intensity (a.u.)
